Measured values: article PMC11005723, “Development of Complementary Photo‐arginine/lysine to Promote Discovery of Arg/Lys hPTMs Interactomes” (Advanced Science, 2024)
The source gives many values for each of these; only a part stands here.

Tested on: HEK293T nuclear lysates
Test: SILAC‐based pull‐down proteomics H4K5me1/H4K5 (probes 6/5)
Type: binding, human

probe 6: H4K5me peptide probe with photo‐arginine R(dz) and K(biotin) (SGRGKGGKGLGKGGK; photo-arginine R(dz) at 3; monomethyl-lysine at 5; K(biotin) at 15)
C6 log (H4K5me/H4K5) (protein TARDBP (A0A087WX29), run C6): 0.06408
B6 log2 (H4K5me/H4K5) (protein TBC1D10B (Q4KMP7), SILAC run B6): -0.82
C6 log (H4K5me/H4K5) (protein TBC1D10B (Q4KMP7), SILAC run C6): -0.8332
B6 log2 (H4K5me/H4K5) (protein TBL1X (O60907), SILAC run B6): -0.4337
C6 log (H4K5me/H4K5) (protein TBL1X (O60907), SILAC run C6): 0.1566
B6 log2 (H4K5me/H4K5) (protein TCOF1 (E7ETY2), run B6): 0.06374
C6 log (H4K5me/H4K5) (protein TCOF1 (E7ETY2), run C6): 0.06778
B6 log2 (H4K5me/H4K5) (protein TDP2 (O95551), SILAC run B6): -0.2347
C6 log (H4K5me/H4K5) (protein TDP2 (O95551), SILAC run C6): -0.3371
B6 log2 (H4K5me/H4K5) (protein TFCP2 (Q12800), SILAC run B6): -0.226
C6 log (H4K5me/H4K5) (protein TFCP2 (Q12800), SILAC run C6): -0.1433
B6 log2 (H4K5me/H4K5) (protein THOC3 (Q96J01), run B6): -0.02427
C6 log (H4K5me/H4K5) (protein THOC3 (Q96J01), run C6): -0.4251
B6 log2 (H4K5me/H4K5) (protein TKT (P29401), run B6): -0.001446
C6 log (H4K5me/H4K5) (protein TKT (P29401), run C6): -0.309
B6 log2 (H4K5me/H4K5) (protein TLK1 (Q9UKI8), SILAC run B6): -0.3264
C6 log (H4K5me/H4K5) (protein TLK1 (Q9UKI8), SILAC run C6): -0.3771
B6 log2 (H4K5me/H4K5) (protein TMOD3 (Q9NYL9), SILAC run B6): -0.3085
C6 log (H4K5me/H4K5) (protein TMOD3 (Q9NYL9), SILAC run C6): -1.063
B6 log2 (H4K5me/H4K5) (protein TNPO1 (Q92973), run B6): 0.003426
C6 log (H4K5me/H4K5) (protein TNPO1 (Q92973), run C6): 0.2807
B6 log2 (H4K5me/H4K5) (protein TOP2B (Q02880), SILAC run B6): -0.2407
C6 log (H4K5me/H4K5) (protein TOP2B (Q02880), SILAC run C6): 0.0006504
B6 log2 (H4K5me/H4K5) (protein TOR1AIP1 (J3KN66), run B6): 0.005639
C6 log (H4K5me/H4K5) (protein TOR1AIP1 (J3KN66), run C6): 0.2183
B6 log2 (H4K5me/H4K5) (protein TOX4 (O94842), run B6): 0.03209
C6 log (H4K5me/H4K5) (protein TOX4 (O94842), run C6): 0.01294
B6 log2 (H4K5me/H4K5) (protein TPR (P12270), SILAC run B6): -0.2081
C6 log (H4K5me/H4K5) (protein TPR (P12270), SILAC run C6): -0.1529
B6 log2 (H4K5me/H4K5) (protein TRA2B (P62995), run B6): 0.09147
C6 log (H4K5me/H4K5) (protein TRA2B (P62995), run C6): -0.2447
B6 log2 (H4K5me/H4K5) (protein TUBB4A (P04350), run B6): 0.09667
C6 log (H4K5me/H4K5) (protein TUBB4A (P04350), run C6): -0.1168
B6 log2 (H4K5me/H4K5) (protein TUBB (P07437), run B6): -0.003096
C6 log (H4K5me/H4K5) (protein TUBB (P07437), run C6): -0.1261
B6 log2 (H4K5me/H4K5) (protein TUFM (P49411), run B6): 0.05599
C6 log (H4K5me/H4K5) (protein TUFM (P49411), run C6): 0.129
B6 log2 (H4K5me/H4K5) (protein TWISTNB (Q3B726), SILAC run B6): -0.295
C6 log (H4K5me/H4K5) (protein TWISTNB (Q3B726), SILAC run C6): -0.2962
B6 log2 (H4K5me/H4K5) (protein U2AF2 (P26368), run B6): 0.04128
C6 log (H4K5me/H4K5) (protein U2AF2 (P26368), run C6): -0.06874
B6 log2 (H4K5me/H4K5) (protein U3KQC1 WDR18, run B6): 0.3185
C6 log (H4K5me/H4K5) (protein U3KQC1 WDR18, run C6): 0.3711
B6 log2 (H4K5me/H4K5) (protein UBXN7 (O94888), run B6): -0.000976
C6 log (H4K5me/H4K5) (protein UBXN7 (O94888), run C6): -0.03102
B6 log2 (H4K5me/H4K5) (protein UHRF1 (Q96T88), run B6): 0.09349
C6 log (H4K5me/H4K5) (protein UHRF1 (Q96T88), run C6): -0.03299
B6 log2 (H4K5me/H4K5) (protein UIMC1 (Q96RL1), run B6): 0.08201
C6 log (H4K5me/H4K5) (protein UIMC1 (Q96RL1), run C6): 0.1173
B6 log2 (H4K5me/H4K5) (protein USP7 (Q93009), run B6): 0.01798
C6 log (H4K5me/H4K5) (protein USP7 (Q93009), run C6): 0.1122
B6 log2 (H4K5me/H4K5) (protein USP48 (Q86UV5), run B6): 0.08212
C6 log (H4K5me/H4K5) (protein USP48 (Q86UV5), run C6): 0.1334
B6 log2 (H4K5me/H4K5) (protein UTP18 (Q9Y5J1), run B6): 0.0224
C6 log (H4K5me/H4K5) (protein UTP18 (Q9Y5J1), run C6): 0.05862
B6 log2 (H4K5me/H4K5) (protein VBP1 (P61758), SILAC run B6): -0.3433
C6 log (H4K5me/H4K5) (protein VBP1 (P61758), SILAC run C6): 0.1802
B6 log2 (H4K5me/H4K5) (protein VCP (P55072), run B6): -0.006138
C6 log (H4K5me/H4K5) (protein VCP (P55072), run C6): -0.1903
B6 log2 (H4K5me/H4K5) (protein VDAC2 (A0A0A0MR02), run B6): 0.02708
C6 log (H4K5me/H4K5) (protein VDAC2 (A0A0A0MR02), run C6): -0.1746
B6 log2 (H4K5me/H4K5) (protein VEZF1 (J3QSH4), run B6): 0.03466
C6 log (H4K5me/H4K5) (protein VEZF1 (J3QSH4), run C6): -0.1124
B6 log2 (H4K5me/H4K5) (protein WDHD1 (O75717), run B6): 0.007853
C6 log (H4K5me/H4K5) (protein WDHD1 (O75717), run C6): -0.06137
B6 log2 (H4K5me/H4K5) (protein WDR70 (Q9NW82), SILAC run B6): -0.4594
C6 log (H4K5me/H4K5) (protein WDR70 (Q9NW82), SILAC run C6): -0.2575
B6 log2 (H4K5me/H4K5) (protein WDR75 (Q8IWA0), run B6): -0.006599
C6 log (H4K5me/H4K5) (protein WDR75 (Q8IWA0), run C6): -0.0202
B6 log2 (H4K5me/H4K5) (protein X6RGJ2 HP1BP3, run B6): 0.285
C6 log (H4K5me/H4K5) (protein X6RGJ2 HP1BP3, run C6): 0.001942
B6 log2 (H4K5me/H4K5) (protein XRCC1 (P18887), run B6): 0.0923
C6 log (H4K5me/H4K5) (protein XRCC1 (P18887), run C6): 0.008144
B6 log2 (H4K5me/H4K5) (protein YBX1 (P67809), SILAC run B6): -0.2509
C6 log (H4K5me/H4K5) (protein YBX1 (P67809), SILAC run C6): -0.05048
B6 log2 (H4K5me/H4K5) (protein YEATS4 (O95619), run B6): 0.09899
C6 log (H4K5me/H4K5) (protein YEATS4 (O95619), run C6): 0.2125
B6 log2 (H4K5me/H4K5) (protein YWHAG (P61981), SILAC run B6): -0.4802
C6 log (H4K5me/H4K5) (protein YWHAG (P61981), SILAC run C6): 0.4619
B6 log2 (H4K5me/H4K5) (protein YWHAQ (P27348), run B6): 0.0723
C6 log (H4K5me/H4K5) (protein YWHAQ (P27348), run C6): 0.2364
B6 log2 (H4K5me/H4K5) (protein YWHAZ (P63104), run B6): 0.07401
C6 log (H4K5me/H4K5) (protein YWHAZ (P63104), run C6): 0.1135
B6 log2 (H4K5me/H4K5) (protein YY1 (P25490), run B6): 0.09671
C6 log (H4K5me/H4K5) (protein YY1 (P25490), run C6): 0.04048
B6 log2 (H4K5me/H4K5) (protein ZC3H11A (O75152), run B6): 0
C6 log (H4K5me/H4K5) (protein ZC3H11A (O75152), run C6): 0.04185
B6 log2 (H4K5me/H4K5) (protein ZC3HC1 (C9J0I9), SILAC run B6): -0.683
C6 log (H4K5me/H4K5) (protein ZC3HC1 (C9J0I9), SILAC run C6): -0.5791
B6 log2 (H4K5me/H4K5) (protein ZFP64 (Q9NTW7), SILAC run B6): -0.2268
C6 log (H4K5me/H4K5) (protein ZFP64 (Q9NTW7), SILAC run C6): -1.0269
B6 log2 (H4K5me/H4K5) (protein ZFP91 isoform 2 (Q96JP5-2), SILAC run B6): -0.3672
C6 log (H4K5me/H4K5) (protein ZFP91 isoform 2 (Q96JP5-2), SILAC run C6): -0.1238
B6 log2 (H4K5me/H4K5) (protein ZFR (Q96KR1), run B6): 0.0403
C6 log (H4K5me/H4K5) (protein ZFR (Q96KR1), run C6): 0.1982
B6 log2 (H4K5me/H4K5) (protein ZHX1 (Q9UKY1), SILAC run B6): -0.3172
C6 log (H4K5me/H4K5) (protein ZHX1 (Q9UKY1), SILAC run C6): -0.5679
B6 log2 (H4K5me/H4K5) (protein ZMYM4 (Q5VZL5), SILAC run B6): -0.2861
C6 log (H4K5me/H4K5) (protein ZMYM4 (Q5VZL5), SILAC run C6): 0.08954
B6 log2 (H4K5me/H4K5) (protein ZNF24 (P17028), run B6): 0.1129
C6 log (H4K5me/H4K5) (protein ZNF24 (P17028), run C6): 0.3732
B6 log2 (H4K5me/H4K5) (protein ZNF316 (A6NFI3), run B6): 0.0298
C6 log (H4K5me/H4K5) (protein ZNF316 (A6NFI3), run C6): -0.006067
B6 log2 (H4K5me/H4K5) (protein ZNF512B (Q96KM6), SILAC run B6): -0.6169
C6 log (H4K5me/H4K5) (protein ZNF512B (Q96KM6), SILAC run C6): -0.2219
B6 log2 (H4K5me/H4K5) (protein ZNF579 (Q8NAF0), SILAC run B6): -0.2819
C6 log (H4K5me/H4K5) (protein ZNF579 (Q8NAF0), SILAC run C6): -0.3049
B6 log2 (H4K5me/H4K5) (protein ZNF629 (Q9UEG4), SILAC run B6): -0.2437
C6 log (H4K5me/H4K5) (protein ZNF629 (Q9UEG4), SILAC run C6): -0.1864
B6 log2 (H4K5me/H4K5) (protein ZNF768 (Q9H5H4), run B6): 0.0005657
C6 log (H4K5me/H4K5) (protein ZNF768 (Q9H5H4), run C6): -0.2203
B6 log2 (H4K5me/H4K5) (protein ZNF787 (Q6DD87), run B6): 0.03483
C6 log (H4K5me/H4K5) (protein ZNF787 (Q6DD87), run C6): -0.4189
